Laboratory results as given in PubChem BioAssay AID1347075 (National Center for Advancing Translational Sciences (NCATS), 2019).
Values joined by “and” are separate entries in the source; they are usually repeats but may differ in a detail not shown here. Equal values may be shown once. The whole screen tested about 400,000 compounds, of which about 5,500 (1.4%) were called active. The shares of active, inactive and inconclusive entries below differ from those in the screen. Calls follow the shape of the dose curve; as a rule, active = well fitted cell-killing curve with a large enough effect; inconclusive = small, poorly fitted or top-dose-only effect, or effect the other way; inactive = flat fitted curve, though single readings scatter. A potency beside an inconclusive call is a rough fit, not a confirmed value.

Test: qHTS assay for MDR1-selective chemotherapeutics: Primary screen using the parental adenocarcinoma cell KB-3-1; also: nearly all actives have a fitted effect of over 60% in size
Conditions: KB-3-1 viability, CellTiter-Glo ATP luminescence, 72 h; activity change, negative = cytotoxic: at 46.1 µM (top of the series)
Method in brief: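 Multi-concentration cytotoxicity screen in KB-3-1 cells grown in DMEM lacking phenol red with 10% FBS. After 72 h at 37 °C with compound, ATP-dependent luminescence was recorded.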
% is scaled to controls: 0 for no effect and ±100 for the full control effect; potency is read from the fitted curve at half-maximal effect.

SMILES | Potency | activity change, negative = cytotoxic
O=C(Nc1scc(-c2ccc(Br)cc2)c1C(=O)O)c1ccccc1F | inconclusive: 29.1 µM [cytotoxic, single point] | –
Cc1cc(C)c(C(=O)COC(=O)Cn2nc(-c3ccccc3)oc2=O)cc1C | inactive | –
CC(=O)NC1CCCN(O)C(=O)/C=C(\C)CCOC(=O)C(NC(C)=O)CCCN(O)C(=O)/C=C(\C)CCOC(=O)C(NC(C)=O)CCCN(O)C(=O)/C=C(\C)CCOC1=O (stereo unspecified) | inactive | –
N#C/C(=C(/O)c1ccc(C(=O)c2ccccc2)cc1)c1nc2ccccc2[nH]1 | inactive | –
OC[C@@H]1CN(Cc2cccc(C(F)(F)F)c2)C[C@H](n2cnc3c(NCc4ccc(F)cc4)ncnc32)O1 | inconclusive: 29.1 µM [cytotoxic, single point] | –
O=C(Nc1ccncc1)C1CCN(S(=O)(=O)c2ccc(Cl)cc2)CC1 | inactive | –
CN(Cc1cnc2nc(N)nc(N)c2n1)c1ccc(C(=O)N[C@@H](CCC(=O)O)C(=O)O)cc1 | active: 65.1 nM and inconclusive: 820 nM [cytotoxic, partial curve, poor fit] and inconclusive: 7.3 nM [cytotoxic, full curve] | –
Cc1cc(SCC(=O)NCC(c2cccs2)N2CCOCC2)c(C)cc1Br (stereo unspecified) | inconclusive: 14.6 µM [cytotoxic, partial curve, poor fit] | –
CC1CCCN(c2cc(N(C)CCO)c([N+](=O)[O-])c3nonc23)C1 (stereo unspecified) | inconclusive: 16.4 µM [rising, partial curve, poor fit] | –
CC(=O)OCCN(CCOC(C)=O)c1c(C)[nH]c(=O)[nH]c1=O | inactive | –
O=C(c1cc(Br)ccc1O)N1CCN(S(=O)(=O)Cc2ccccc2)CC1 | inactive | –
CCC(C)NC(=O)C1CCC(=O)N1CCc1ccccc1 (stereo unspecified) | inactive | –
CCOC(=O)/C=C/C(=O)Nc1cccc([N+](=O)[O-])c1 | inconclusive: 29.1 µM [cytotoxic, single point] | –
O=C(c1cc2ccccc2o1)N1CCN(S(=O)(=O)c2ccccc2)CC1 | inactive | –
CCCCC(=O)Nc1cc(OC)c(NC(=S)Nc2ccc(OC)cc2)cc1OC | inactive | –
CC(C)(C)SCCNC(=O)CN(c1ccc(F)c(Cl)c1)S(C)(=O)=O | inactive | –
Nc1ccc(O)c(-c2nc3ccccc3s2)c1 | inactive | –
Cc1[nH]n2c(=O)cc(-c3ccc(Cl)cc3)nc2c1-c1ccccc1 | inconclusive: 3.26 µM [cytotoxic, partial curve, poor fit] | –
CCOc1ccc(C(=O)c2cn(CC(=O)Nc3cccc(OC)c3)c3cc4c(cc3c2=O)OCCO4)cc1 | inconclusive: 10.3 µM [cytotoxic, partial curve] | –
COc1ccc([C@H]2C[C@@H](O)[C@H](n3cc(-c4ccc(F)cc4)nn3)CN2C(=O)C2CCCCC2)cc1 | inactive | –
CN(C)CCSc1nc(O)c(-c2ccccc2)c(=O)n1-c1ccccc1 | inactive | –
COc1ccc(CNC(=O)c2ccc3nc(CCc4ccccc4)oc3c2)cc1 | inactive | –

Another view of 2 compounds above.
SMILES,Potency,"activity change, negative = cytotoxic"
O=C(Nc1scc(-c2ccc(Br)cc2)c1C(=O)O)c1ccccc1F,"inconclusive: 29.1 µM [cytotoxic, single point]",–
CN(Cc1cnc2nc(N)nc(N)c2n1)c1ccc(C(=O)N[C@@H](CCC(=O)O)C(=O)O)cc1,"active: 65.1 nM and inconclusive: 820 nM [cytotoxic, partial curve, poor fit] and inconclusive: 7.3 nM [cytotoxic, full curve]",–

Later entries:

SMILES | Potency | activity change, negative = cytotoxic
S=C1Cc2ccccc2N1 | active: 5.8 µM | –
CN(C)c1ncnc2sc(-c3ccccc3)cc12 | inconclusive: 23.1 µM [cytotoxic, partial curve, poor fit] | –
C(=C\c1ccccc1)/CN1CCN(C(CCc2ccccc2)c2nnnn2C2CCCC2)CC1 (stereo unspecified) | inconclusive: 29.1 µM [cytotoxic, single point] | –
Cc1ccc2nc(-c3cccc(SC4CCCCC4)c3)c(NCc3ccccc3)n2c1 | inconclusive: 11.6 µM [cytotoxic, single point] and inconclusive: 29.1 µM [cytotoxic, single point] | –
CCOc1ccc(CCNC(=O)c2ccc(C)c(S(=O)(=O)N3CCOCC3)c2)cc1OCC | inconclusive: 25.9 µM [cytotoxic, single point] | –
O=C(Nc1nnc(-c2ccc(Cl)cc2)o1)c1ccccc1Br | inconclusive: 29.1 µM [cytotoxic, single point] | –
COc1cc(/C=C/C(=O)c2c(O)ccc3c(C)cc(=O)oc23)ccc1O | inconclusive: 25.9 µM [cytotoxic, single point] | –
CC(C)(C)OC(=O)C[C@@H]1C/C=C\C[C@H](CC(=O)NCCO)C(=O)N[C@H](Cc2ccccc2)COC1=O | – | inconclusive: 43.9%
COC(=O)C1=C(C(=O)OC)[C@@H]2N(Cc3ccccc3)c3ccccc3[C@@]23C[C@@H](C(=O)OC)N(C(=O)c2cccs2)C3=N1 | inconclusive: 16.4 µM [cytotoxic, single point] | –
COc1ccccc1-c1nn2c(-c3cc(-c4ccccc4)n[nH]3)nnc2s1 | inconclusive: 29.1 µM [rising, single point] | –
O=C(Cc1ccc(F)cc1)NC1CCSC1=O (stereo unspecified) | inconclusive: 13 µM [rising, single point] | –
Cc1cccc(C)c1NC(=O)CN1CCN(C(=O)CNC(=O)c2ccc(-c3ccccc3)cc2)CC1 | inconclusive: 29.1 µM [cytotoxic, single point] | –
CCOc1ccccc1NC(C)C(=O)Nc1cc(C(F)(F)F)ccc1N1CCOCC1 (stereo unspecified) | inconclusive: 29.1 µM [cytotoxic, single point] | –
CCN(CC)CCNc1ccc(CO)c2sc3ccccc3c(=O)c12 | active: 16.4 µM | –
Cc1c(C(=O)N2CCN(Cc3ccc4c(c3)OCO4)CC2)sc2ncnc(N3CCN(c4ccccc4)CC3)c12 | inactive | –
Cn1c(-c2ccccc2)c(/C=N/NC(=O)c2cccnc2)c2ccccc21 | inconclusive: 32.6 µM [rising, single point] | –
CSc1ccc(C2CC(=O)Oc3c2c(=O)n(C)c2ccccc32)cc1 (stereo unspecified) | inactive | –
CCC(C)Sc1cc(-c2nc3ccccn3c2NC2CCCCC2)ccc1OC (stereo unspecified) | inconclusive: 29.1 µM [cytotoxic, single point] | –
O=C(OCN1C(=O)c2ccccc2C1=O)c1ccc(Cl)nc1 | inconclusive: 11.6 µM [rising, partial curve, poor fit] | –
O=C(NCCC1CCCCN1S(=O)(=O)c1ccccc1)C(=O)Nc1ccc(F)cc1F (stereo unspecified) | inconclusive: 20.6 µM [cytotoxic, single point] | –
Cc1ccc(S(=O)(=O)N2CCN(c3nc(C(C)C)c4c(c3C#N)CC(C)(C)OC4)CC2)cc1 | inconclusive: 35.5 µM [cytotoxic, single point] | –
Cc1nc(N2CCCCCC2)c2ccccc2n1 | inconclusive: 23.1 µM [cytotoxic, single point] | –

SMILES | Potency | activity change, negative = cytotoxic
Cc1ccc(S(=O)(=O)/N=C2/NC(=O)/C(=C/c3cccnc3)S2)cc1 | inconclusive: 29.1 µM [cytotoxic, single point] | –
COc1cc(C2c3cc4c(cc3OC(Nc3ccc(C(=O)O)cc3)C2C)OCO4)cc(OC)c1OC (stereo unspecified) | active: 0.184 µM | –
CC1CCc2sc(C(=O)NNC(=S)NC3CC3)cc2C1 (stereo unspecified) | inactive | –
CC1Cc2cc(-c3csc(NC(=O)Cc4cccs4)n3)ccc2N1S(C)(=O)=O (stereo unspecified) | active: 3.26 µM | –
N#Cc1nc(-c2ccc(OCc3ccccc3)cc2)oc1NCCCn1ccnc1 | inconclusive: 16.4 µM [cytotoxic, single point] | –
CC1CCN(c2nn3c(=O)c(C(=O)NCCc4ccccc4)cnc3s2)CC1 | inactive | –
CC(/C=N/NC(=O)c1cccc(F)c1)=C\c1ccccc1 | active: 16.4 µM | –
CCOC(=O)N1CCC(N(CCN(C)C)C(=S)Nc2cccc(Cl)c2)CC1 | inconclusive: 7.31 µM [cytotoxic, partial curve] | –
CCc1ccc(NCc2cc3ccc(OC)cc3n(CC(=O)Nc3ccccc3C)c2=O)cc1 | inconclusive: 18.4 µM [cytotoxic, single point] | –
Cc1ccc(NC(=O)c2cc(-c3cccc(O)c3)on2)cc1C | – | inconclusive: -13.2%
Cn1c(NCC(O)c2ccccc2)nc2c1c(=O)n(Cc1ccc(Cl)cc1)c(=O)n2C (stereo unspecified) | inconclusive: 29.1 µM [cytotoxic, single point] | –
COc1ccc(CCNC(=O)c2ccc3c(c2)N(Cc2ccc(F)cc2)CCS3)c(OC)c1 | inconclusive: 23.1 µM [cytotoxic, partial curve, poor fit] | –
O=C(O)c1cccc(Sc2ccc(Br)cc2C(=O)O)c1 | inconclusive: 9.2 µM [rising, partial curve] | –
Cc1cc(C(C)(C)C)oc1C(=O)N(CC(=O)NC1CCCC1)c1cccc(C(F)(F)F)c1 | inactive | –
Cc1ccc(CSC2=Nc3ccccc3C3=NC(CCC(=O)NC4CCCCC4)C(=O)N23)cc1 (stereo unspecified) | inconclusive: 29.1 µM [cytotoxic, single point] | –
CCc1c(C)sc2c1CCN(Cc1cccc(OC)c1)C2c1ccccc1 (stereo unspecified) | inconclusive: 18.4 µM [cytotoxic, single point] | –
Cn1nc(C(F)(F)F)c(C(=O)Nc2ccc(F)cc2F)c1Sc1cccc(C(F)(F)F)c1 | inconclusive: 1.64 µM [cytotoxic, single point] | –
Cn1cnnc1Sc1ccc(C(=O)NCCC23CC4CC(CC(C4)C2)C3)cc1[N+](=O)[O-] | inconclusive: 29.1 µM [rising, single point] | –
CCCCCCCCCN(CCCCCCCCC)c1ccc(/C=C/c2ccnc3ccccc23)cc1 | inactive | –
CCOC(=O)c1c(NC(=O)CSc2ncn[nH]2)sc(C(=O)NC)c1C | inconclusive: 0.0065 µM [rising, full curve] | –
COc1cc(OC)cc(C(=O)N/N=C2/SCC(=O)N2Cc2ccco2)c1 | inactive | –
Cc1ccc(SC[C@H](C)CN2CC[C@H](C)CCC2=O)cc1 | inconclusive: 29.1 µM [cytotoxic, single point] | –

Random excerpt: 2 compounds from above, in no set order.
SMILES | Potency | activity change, negative = cytotoxic
CCOC(=O)c1c(NC(=O)CSc2ncn[nH]2)sc(C(=O)NC)c1C | inconclusive: 0.0065 µM [rising, full curve] | –
CC1Cc2cc(-c3csc(NC(=O)Cc4cccs4)n3)ccc2N1S(C)(=O)=O (stereo unspecified) | active: 3.26 µM | –
